According to patent publication US11827674B2, “Wet adhesive peptides” (US Department of the Navy, priority 2017, dated 2023):
Not every detail of the peptide structures is certain; ends, links or a residue may be inferred. Peptide text beside a SMILES is read from it.

Assay: ThT aggregation assay, free peptide BCP
Format: physicochemical
Settings: up to 300 h; Tris-EDTA and ASW

In the case of CC[C@H](C)[C@H](NC(=O)[C@H](CCC(N)=O)NC(=O)CNC(=O)[C@H](CCCNC(=N)N)NC(=O)CNC(=O)[C@@H](NC(=O)[C@H](C)NC(=O)[C@H](C)NC(=O)[C@H](CCCCN)NC(=O)CNC(=O)[C@H](CCCCN)NC(=O)[C@@H](NC(=O)[C@H](Cc1ccccc1)NC(=O)[C@H](CO)NC(=O)[C@H](CO)NC(=O)[C@H](CO)NC(=O)[C@@H](NC(=O)[C@H](CCC(=O)O)NC(=O)[C@H](CO)NC(=O)[C@@H](NC(=O)[C@H](CC(N)=O)NC(=O)CNC(=O)[C@H](CO)NC(=O)CNC(=O)[C@@H](NC(=O)[C@@H](NC(=O)CNC(=O)[C@H](CC(=O)O)NC(=O)[C@H](CCC(N)=O)NC(=O)CNC(=O)[C@H](CO)NC(=O)[C@H](CCCNC(=N)N)NC(=O)[C@H](CCCCN)NC(=O)CN)[C@@H](C)O)[C@@H](C)O)C(C)C)[C@@H](C)O)C(C)C)C(C)C)C(=O)N[C@@H](CC(N)=O)C(=O)N[C@@H](CO)C(=O)N[C@@H](C)C(=O)O [ranBCP2C] (H-GKRSGQDGTTGSGNVSETSSSFVKGKAAVGRGQINSA-OH), the “ThT activity / fibril formation of free peptide” value is reported as “no ThT activity”.
